Experimental data published in PMC5864048.

Legend:
[1] = test system: GST-OsMYB5P (Oryza sativa L. 'Dongjin'); test: competition with a labelled probe; conditions: cold probe decreases the labeled MBS1 complex; 5 mM MgCl2, 2.5% glycerol, 0.05% NP-40, 50 ng/uL poly(dI-dC); recombinant protein; protein details: GST (pGEX-2T)
[2] = test system: GST-OsMYB5P (Oryza sativa L. 'Dongjin'); test: EMSA; conditions: poly(dI-dC), 5 mM MgCl2, 5 mM MgCl2, 2.5% glycerol, 0.05% NP-40, 50 ng/uL poly(dI-dC), recombinant protein, protein details: GST (pGEX-2T), label: 3' biotin

Question: Does “TATAATATAATGAACTTACAGTTGAGACATACATATGAA (double strand) [OsPT5-MBS1 cold competitor]” bind [1]?
Answer: Result: binds

Question: Does “TATAATATAATGAACTTACAGTTGAGACATACATATGAA (double strand) [OsPT5-MBS1]” bind ([2]; band increases with protein amount)?
Answer: Result: binds

Question: Does “GGACAGGAACATTCCAGTTGATGGTTTCCTTCAATTAGG (double strand) [OsPT5-MBS2]” bind [2]?
Answer: Result: binds more weakly

For at least one entry, the source does not settle the construct or the ends of the probe. For part of these data: The comparison behind a weaker result is the experiment's own reference, which may not be listed here. For part of these data: At least one verdict was read from the data and is not stated in words by the source.
